# Laboratory results taken from the supplement of paper PMC8728848.
# The other results are listed elsewhere or left out.
# B1: SspB A3vp1 (Streptococcus gordonii), Q54186 (protein)
# chain: MTNEADYQAKLAAYQTELARVQKANADAKATYEKAVEDNKAKNAAIKAENEEIKQRNAVAKTDYEAKLAKYEADLAKYKKEFAAYTAALAEAESKKKQDGYLSEPRSQSLNFKSEPNAIRTIDSSVHQYGQQELDALVKSWGISPTNPDRKKSRAYSYFNAINSNNTYAKLVLEKDKPVDVTYTGLKNSSFNGKKISKVVYTYTLKETGFNDGTKMTMFASSDPTVTAWYNDYFTSTNINVKVKFYDEEGQLMNLTGGLVNFSSLNRGNGSGAIDKDAIESVRNFNGRYIPISGSSIKIHENNSAYADSSNAEKSLGARWNTSEWDTTSSPNNWYGAIVGEITQSEISFNMASSKSGNIWFAFNSNINAIGVPTKPVAPTAPTQPMYETEKPLEPAPVAPSYENEPTPPVKTPDQPEPSKPAAALEHHHHHH
# What was measured:
# [1] = biological target: Neu5Gc(a2-8)Neu5Gc(a2-6)Gal(b1-4)GlcNAc; assay: glycan array binding signal (z-score within array); higher = stronger binding; conditions: glycan notation: IUPAC condensed, linker removed
# How it was run: (§1)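 Glycan array data came from 3228 arrays in the Consortium for Functional Glycomics database, and only arrays with an available protein sequence were kept. Glycan names were put into IUPAC-condensed notation, and columns mapping to the same glycan were averaged. The binding signal is a within-array Z-score, averaged across arrays of one protein sequence run at different concentrations or buffers and across linkers. A negative Z-score can be read as non-binding.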
# [2] = biological target: Neu5Gc(b2-6)Gal(b1-4)GlcNAc; assay: as above; conditions: glycan notation: IUPAC condensed, linker removed
# How it was run: as §1
binder,measurement,setting,value
B1,glycan array binding signal (z-score),[1],-0.817
same,glycan array binding signal (z-score),[2],-0.252
